# Test results reported in the supplement of paper PMC8728848.
# The list shows a part of the results.
# B1: Epa8 (Candida glabrata) (protein)
# chain: MGSSHHHHHHSSGLVPRGSHMASSRALSDYPLGCSPLLGTKLTPGLSMELYEYPLDNHGIGPHCWDPAYLNPEYPRTGFESHKLIGTAQNVMSLNFEHRTQDCHVEFSNLPASFNFPDQITLTNFTMLLYGYFKPKESGRYRFHMEADDLLLMNLGAGNAFDCCAHEATRNNLGDYIAYDIWAGTRKDVEVFLEKEVFYPLRLFFNNRDGRAALDFSYYLNGATEPGTDIPELLFSLPDGESCPAYI
# Experiments:
# Test in all cases: glycan array binding signal (z-score within array); higher = stronger binding
# Conditions in all cases: glycan notation: IUPAC condensed, linker removed
# [1] = molecular target: Gal6S(b1-4)Glc
# How it was run: (§1)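 The binding signal is a Z-score computed within each array and averaged over linkers. Arrays of the same protein sequence at different concentrations or buffers were also averaged together. Data originate from 3228 arrays in the Consortium for Functional Glycomics database, kept only where the protein sequence was available.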
# [2] = molecular target: Gal6S(b1-4)Glc6S
# How it was run: as §1
# [3] = molecular target: Gal6S(b1-4)GlcNAc
# How it was run: as §1
# [4] = molecular target: Gal6S(b1-4)GlcNAc6S
# How it was run: as §1
# [5] = molecular target: GalNAc(a1-3)Gal
# How it was run: as §1
# [6] = molecular target: GalNAc(a1-3)GalNAc
# How it was run: as §1
# [7] = molecular target: GalNAc(a1-3)GalNAc(b1-3)Gal(a1-4)Gal(b1-4)Glc
# How it was run: as §1
# [8] = molecular target: GalNAc(a1-3)GalNAc(b1-3)Gal(a1-4)Gal(b1-4)GlcNAc
# How it was run: as §1
# [9] = molecular target: GalNAc(b1-3)Gal
# How it was run: as §1
# [10] = molecular target: GalNAc(b1-3)Gal(a1-4)Gal(b1-4)GlcNAc
# How it was run: as §1
# [11] = molecular target: GalNAc(b1-3)Gal(a1-4)Gal(b1-4)GlcNAc(b1-3)Gal(b1-4)Glc
# How it was run: as §1
# [12] = molecular target: GalNAc(b1-3)Gal(a1-6)Gal(b1-4)Glc
# How it was run: as §1
# [13] = molecular target: GalNAc(b1-3)GalNAc
# How it was run: as §1
# [14] = molecular target: GalNAc(b1-3)GlcNAc
# How it was run: as §1
# [15] = molecular target: GalNAc(b1-4)Gal(b1-4)Glc
# How it was run: as §1
# [16] = molecular target: GalNAc(b1-4)GlcNAc
# How it was run: as §1
# [17] = molecular target: GalNAc(b1-4)GlcNAc(b1-2)Man
# How it was run: as §1
# [18] = molecular target: GalNAc(b1-4)GlcNAc(b1-2)Man(a1-3)[GalNAc(b1-4)GlcNAc(b1-2)Man(a1-6)]Man(b1-4)GlcNAc(b1-4)GlcNAc
# How it was run: as §1
# [19] = molecular target: GalNAc(b1-4)GlcNAc(b1-3)GalNAc(b1-4)GlcNAc
# How it was run: as §1
# [20] = molecular target: GalNAc(b1-4)GlcNAc6S
# How it was run: as §1
# [21] = molecular target: GalNAc(b1-6)GalNAc
# How it was run: as §1
# [22] = molecular target: GalNAc3S(b1-4)GlcNAc
# How it was run: as §1
# [23] = molecular target: GalNAc3S(b1-4)GlcNAc3S
# How it was run: as §1
# [24] = molecular target: GalNAc3S(b1-4)[Fuc(a1-3)]GlcNAc
# How it was run: as §1
# [25] = molecular target: GalNAc4S6S(b1-4)GlcNAc
# How it was run: as §1
# [26] = molecular target: GalNAc6S(b1-4)GlcNAc
# How it was run: as §1
# [27] = molecular target: Glc(a1-4)Glc
# How it was run: as §1
# [28] = molecular target: Glc(a1-4)Glc(a1-4)Glc(a1-4)Glc
# How it was run: as §1
# [29] = molecular target: Glc(a1-6)Glc(a1-6)Glc
# How it was run: as §1
# [30] = molecular target: Glc(a1-6)Glc(a1-6)Glc(a1-6)Glc
# How it was run: as §1
# [31] = molecular target: Glc(b1-4)Glc
# How it was run: as §1
# [32] = molecular target: Glc(b1-6)Glc
# How it was run: as §1
# [33] = molecular target: GlcA(b1-3)Gal
# How it was run: as §1
# [34] = molecular target: GlcA(b1-3)GlcNAc
# How it was run: as §1
# [35] = molecular target: GlcA(b1-6)Gal
# How it was run: as §1
# [36] = molecular target: GlcA3S(b1-3)Gal(b1-4)GlcNAc(b1-2)Man
# How it was run: as §1
# [37] = molecular target: GlcA3S(b1-3)Gal(b1-4)GlcNAc(b1-3)Gal(b1-4)Glc
# How it was run: as §1
# [38] = molecular target: GlcNAc(a1-3)Gal(b1-4)GlcNAc
# How it was run: as §1
# [39] = molecular target: GlcNAc(a1-4)Gal(b1-3)GlcNAc
# How it was run: as §1
# [40] = molecular target: GlcNAc(a1-4)Gal(b1-4)GalNAc
# How it was run: as §1
# [41] = molecular target: GlcNAc(a1-4)Gal(b1-4)GlcNAc
# How it was run: as §1
# [42] = molecular target: GlcNAc(a1-4)Gal(b1-4)GlcNAc(b1-3)Gal(b1-4)Glc
# How it was run: as §1
# [43] = molecular target: GlcNAc(a1-4)Gal(b1-4)GlcNAc(b1-3)Gal(b1-4)GlcNAc
# How it was run: as §1
# [44] = molecular target: GlcNAc(a1-4)Gal(b1-4)GlcNAc(b1-3)Gal(b1-4)GlcNAc(b1-3)Gal(b1-4)GlcNAc
# How it was run: as §1
# [45] = molecular target: GlcNAc(a1-4)Gal(b1-4)GlcNAc(b1-3)Gal(b1-4)[Fuc(a1-3)]GlcNAc(b1-3)Gal(b1-4)[Fuc(a1-3)]GlcNAc
# How it was run: as §1
binder,measurement,setting,value
B1,glycan array binding signal (z-score),[1],0.199
same,glycan array binding signal (z-score),[2],1.14
same,glycan array binding signal (z-score),[3],-0.007
same,glycan array binding signal (z-score),[4],1.56
same,glycan array binding signal (z-score),[5],-0.335
same,glycan array binding signal (z-score),[6],-0.2
same,glycan array binding signal (z-score),[7],-0.455
same,glycan array binding signal (z-score),[8],-0.311
same,glycan array binding signal (z-score),[9],-0.001
same,glycan array binding signal (z-score),[10],-0.467
same,glycan array binding signal (z-score),[11],0.147
same,glycan array binding signal (z-score),[12],-0.488
same,glycan array binding signal (z-score),[13],-0.308
same,glycan array binding signal (z-score),[14],-0.119
same,glycan array binding signal (z-score),[15],0.191
same,glycan array binding signal (z-score),[16],-0.22
same,glycan array binding signal (z-score),[17],-1.45
same,glycan array binding signal (z-score),[18],-0.176
same,glycan array binding signal (z-score),[19],-0.028
same,glycan array binding signal (z-score),[20],0.087
same,glycan array binding signal (z-score),[21],-0.692
same,glycan array binding signal (z-score),[22],-0.238
same,glycan array binding signal (z-score),[23],1.11
same,glycan array binding signal (z-score),[24],0.176
same,glycan array binding signal (z-score),[25],1.67
same,glycan array binding signal (z-score),[26],-0.651
same,glycan array binding signal (z-score),[27],-0.398
same,glycan array binding signal (z-score),[28],0.169
same,glycan array binding signal (z-score),[29],-0.225
same,glycan array binding signal (z-score),[30],0.95
same,glycan array binding signal (z-score),[31],-1.31
same,glycan array binding signal (z-score),[32],-0.452
same,glycan array binding signal (z-score),[33],0.715
same,glycan array binding signal (z-score),[34],0.027
same,glycan array binding signal (z-score),[35],0.619
same,glycan array binding signal (z-score),[36],0.306
same,glycan array binding signal (z-score),[37],-0.781
same,glycan array binding signal (z-score),[38],-0.695
same,glycan array binding signal (z-score),[39],-0.625
same,glycan array binding signal (z-score),[40],-0.438
same,glycan array binding signal (z-score),[41],0.361
same,glycan array binding signal (z-score),[42],0.924
same,glycan array binding signal (z-score),[43],1.28
same,glycan array binding signal (z-score),[44],-0.488
same,glycan array binding signal (z-score),[45],0.326

# Some of the entries so far, with tabs.
binder	measurement	setting	value
B1	glycan array binding signal (z-score)	[5]	-0.335
same	glycan array binding signal (z-score)	[6]	-0.2
same	glycan array binding signal (z-score)	[7]	-0.455
same	glycan array binding signal (z-score)	[8]	-0.311
same	glycan array binding signal (z-score)	[9]	-0.001
same	glycan array binding signal (z-score)	[10]	-0.467
same	glycan array binding signal (z-score)	[11]	0.147
same	glycan array binding signal (z-score)	[12]	-0.488
same	glycan array binding signal (z-score)	[13]	-0.308
same	glycan array binding signal (z-score)	[14]	-0.119
